Data as given in PubChem BioAssay AID652243 (Drosophila RNAi Screening Center, 2013)
Assay: 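Fly regulators of androgen-dependent reporter output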 (primary screen). System: Drosophila S2R+ cells. Reagents: long dsRNA against Drosophila genes. Timing: 72 h (48 h, then 24 h hormone). Conditions: synthetic androgen R1881 at 10 nM for 24 h. Detection: 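Firefly light from an androgen-responsive reporter and Renilla control light per well, raw and unnormalised, for each of two replicates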. Reading the numbers: firefly reporter light: higher = more light from androgen-responsive reporter; Renilla control light: higher = more constitutive control signal (cell number, transfection). Call rule: 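Hit when the log firefly-to-Renilla ratio dropped or increased by a fixed fold versus the mean of GFP or LacZ controls across duplicate plates; lowering cut given as 1.5 and as 3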. Calls: active = hit: reporter lowered or raised; inactive = no hit.
The screen tested about 24,000 reagents; shown is a random part of those with a known target gene and a result. Over the whole deposit, 246 (1%) are marked active. 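Plates not normalised; calls are printed but the firefly/Renilla ratio behind them is not deposited; fold cut for lowering reported inconsistently.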 Raw values are not corrected between plates. Reagents against one gene are numbered here. Not given: the amount of reagent.

no.	predicted target	reagent no.	firefly reporter light, replicate 1	firefly reporter light, replicate 2	Renilla control light, replicate 1	Renilla control light, replicate 2	activity call
1	CG33767	1	7.38e5	7.95e5	1.07e6	1.21e6	inactive
2	CG1850	1	3.20e5	3.41e5	1.95e6	1.98e6	inactive
3	CG7841	1	3.83e5	2.97e5	2.82e6	2.71e6	inactive
4	Chi	1	7.71e5	7.49e5	1.43e6	1.43e6	inactive
5	Chi	2	3.46e5	7.51e5	1.04e6	1.55e6	inactive
6	CG6337	1	1.28e5	1.64e5	3.89e6	3.89e6	inactive
7	CG6337	2	5.58e5	5.05e5	1.71e6	1.62e6	inactive
8	meep	1	1.34e5	1.12e5	2.61e5	2.94e5	inactive
9	meep	2	8.59e5	5.88e5	8.41e5	7.11e5	inactive
10	CG8204	1	1.45e5	1.23e5	2.02e6	2.02e6	inactive
11	Jra	1	8.07e5	6.36e5	2.25e6	2.23e6	inactive
12	Jra	2	2.60e5	3.63e5	3.90e5	7.75e5	inactive
13	CG10979	1	51473	32288	1.02e6	6.78e5	inactive
14	Cog6	1	1.06e6	1.24e6	1.61e6	1.73e6	inactive
15	Cog6	2	7.07e5	3.72e5	1.08e6	1.08e6	inactive
16	Cyp6v1	1	2.53e5	1.43e5	7.31e5	4.84e5	inactive
17	Cyp6v1	2	6.39e5	6.26e5	1.23e6	1.30e6	inactive
18	CG32483	1	1.79e5	1.46e5	1.78e5	2.96e5	inactive
19	CG11666	1	7.52e5	6.84e5	1.80e6	1.51e6	inactive
20	dpr4	1	2.12e5	2.26e5	2.65e6	2.46e6	inactive
21	dpr4	2	2.81e5	1.92e5	2.70e6	2.34e6	inactive
22	Ts	1	1.23e5	1.25e5	9.41e5	1.08e6	inactive
23	Ts	2	9.24e5	6.47e5	2.19e6	1.70e6	inactive
24	CG8136	1	1.82e5	1.79e5	1.81e6	2.06e6	inactive
25	CG8136	2	5.20e5	4.70e5	1.51e6	1.33e6	inactive
26	Gr22b	1	4.83e5	7.02e5	3.64e5	3.64e5	inactive
27	Klp68D	1	8.55e5	9.33e5	1.52e6	1.99e6	inactive
28	Klp68D	2	9.04e5	6.55e5	1.12e6	1.27e6	inactive
29	CG13559	1	3.39e5	2.55e5	2.26e6	1.91e6	inactive
30	mbm	1	8.23e5	5.08e5	2.96e6	1.41e6	inactive
31	pk	1	8.50e5	6.94e5	1.53e6	1.67e6	inactive
32	pk	2	4.12e5	5.49e5	2.45e6	2.21e6	inactive
33	pk	3	4.54e5	2.74e5	5.70e5	3.51e5	inactive
34	CG12784	1	1.73e5	1.84e5	2.14e6	2.64e6	inactive
35	Tsp42Ef	1	4.96e5	4.10e5	3.45e6	2.29e6	inactive
36	ATbp	1	1.01e5	39182	2.15e5	2.02e5	inactive
37	ATbp	2	3.91e5	4.11e5	8.55e5	8.55e5	inactive
38	CG15435	1	85589	83283	7.06e5	7.15e5	inactive
39	CG15435	2	2.08e5	2.20e5	4.94e5	6.77e5	inactive
40	CG31226	1	4.91e5	3.54e5	1.12e6	1.20e6	inactive
41	NTPase	1	8.51e5	8.32e5	1.92e6	1.22e6	inactive
42	NTPase	2	4.09e5	3.95e5	7.75e5	6.73e5	inactive
43	CG18599	1	7.08e5	7.62e5	1.03e6	1.09e6	inactive
44	CG18599	2	6.01e5	7.04e5	9.58e5	8.26e5	inactive
45	CG18599	3	2.33e5	1.87e5	8.05e5	7.52e5	inactive

Records listed so far whose gene name begins with N or n:
predicted target	reagent no.	firefly reporter light, replicate 1	firefly reporter light, replicate 2	Renilla control light, replicate 1	Renilla control light, replicate 2	activity call
NTPase	1	8.51e5	8.32e5	1.92e6	1.22e6	inactive
NTPase	2	4.09e5	3.95e5	7.75e5	6.73e5	inactive

The results go on:
no.	predicted target	reagent no.	firefly reporter light, replicate 1	firefly reporter light, replicate 2	Renilla control light, replicate 1	Renilla control light, replicate 2	activity call
46	CHMP2B	1	5.94e5	4.70e5	1.19e6	9.51e5	inactive
47	CHMP2B	2	3.27e5	2.65e5	7.16e5	7.07e5	inactive
48	CG15186	1	42754	48358	8.62e5	7.43e5	inactive
49	CG15186	2	4.84e5	4.60e5	6.41e5	7.49e5	inactive
50	Pdk	1	1.55e6	3.98e5	2.06e6	6.09e5	inactive
51	Pdk	2					inactive
52	Pdk	3					inactive
53	CG32638	1	8.00e5	5.36e5	1.04e6	6.39e5	inactive
54	Wwox	1	6.18e5	7.28e5	1.45e6	2.09e6	inactive
55	Wwox	2	3.58e5	7.44e5	8.12e5	1.89e6	inactive
56	Wwox	3	2.24e5	2.69e5	6.23e5	7.07e5	inactive
57	CG15036	1	49442	71395	1.30e6	9.51e5	inactive
58	CG15036	2	2.86e5	3.71e5	6.50e5	7.41e5	inactive
59	slmb	1	1.20e5	1.36e5	7.57e5	7.28e5	inactive
60	CG9536	1	6.50e5	7.32e5	1.19e6	1.20e6	inactive
61	CG9536	2	7.81e5	8.76e5	1.02e6	1.01e6	inactive
62	RpS3A	1	1.34e5	1.28e5	1.40e6	1.47e6	inactive
63	SERCA	1	6.46e5	4.29e5	1.29e6	1.25e6	inactive
64	SERCA	2	3.02e5	3.27e5	5.76e5	4.57e5	inactive
65	E(spl)mgamma-HLH	1	1.81e5	1.76e5	2.14e6	1.99e6	inactive
66	E(spl)mgamma-HLH	2	3.03e5	3.32e5	4.15e5	4.00e5	inactive
67	RapGAP1	1	3.42e5	3.38e5	1.56e6	1.79e6	inactive
68	RapGAP1	2	2.29e5	2.12e5	1.41e6	1.38e6	inactive
69	RapGAP1	3	2.03e5	2.20e5	1.76e6	1.59e6	inactive
70	RapGAP1	4	6.61e5	7.37e5	1.98e6	2.15e6	inactive
71	RapGAP1	5	3.72e5	4.92e5	1.53e6	1.71e6	inactive
72	RapGAP1	6	4.89e5	6.51e5	9.03e5	9.03e5	inactive
73	CG12594	1	1.57e5	1.57e5	2.09e6	2.25e6	inactive
74	CG12594	2	2.61e5	2.99e5	6.05e5	6.39e5	inactive
